Some of the results follow. These are further read-outs of the screen, such as a control signal, another cell line or another target. No call is given for them. Compounds called inactive in the main read-out are mostly missing here. Potencies come from curve fits of mixed quality, noted in brackets.
Assay: qHTS Assay to Find Inhibitors of Chronic Active B-Cell Receptor Signaling
Details: ABC-DLBCL IkBa-CBG/CBR reporter, luminescence ratio (green luciferase fused to IkBa over red control in TMD8 lymphoma cells), 4 h
Summary of the method: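 Cell line TMD8 (human ABC DLBCL), stably expressing tet-inducible CBG68-IkBa fusion and CBR; IMDM/0.5% FBS; cpd up to 46 uM; dox induction, 4 h, 37C/5% CO2; dual luminescence; green/red ratio; MG132 control.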

[1] = measured here: CBR red luminescence, cell number
[2] = measured here: IkBa-CBG green luminescence

Row | SMILES | AC50 [1] | AC50 [2]
1 | O=C(CCC1CCCCC1)NCCN1C2=NC[C@@H](Cc3ccccc3)N2C[C@H]1Cc1ccc(O)cc1 | 35.5 µM [falling, single point] | 
2 | Cc1ccc(/C=N/Nc2nncn2N)cc1 | 35.5 µM [falling, single point] | 
3 | Cc1ccc(C(=O)N2CCCC(c3ccccc3)=N2)cc1 | 0.631 µM [falling, full curve, poor fit] | 
4 | O=[N+]([O-])C(=C1Nc2ccccc2N1)C(Cl)=C(Cl)Cl | 3.55 µM [falling, partial curve, poor fit] | 
5 | CCCCNC(=S)NCc1ccc2c(c1)cc(C)n2C | 29.1 µM [rising, single point] | 
6 | Cn1c(=O)n(CC(N)=O)c2ccccc21 | 6.51 µM [falling, single point] | 
7 | CCN(CC)CCn1c(NC(=O)c2ccc(Cl)cc2)nc2ccccc21 | 18.4 µM [falling, single point] | 
8 | Cn1c(SCC(=O)N/N=C/C=C/c2ccco2)nc2ccccc21 |  | 20.6 µM [falling, single point]
9 | CN(C)C(=O)c1ccc(-c2cc3onc(-c4ccccc4)c3c(=O)n2C)cc1 | 29.1 µM [falling, single point] | 
10 | COc1cccc(NC(=O)n2ncc3c(C)cccc32)c1 | 8.91 µM [falling, partial curve] | 
11 | CC1(C)CC(=O)C2=C(C1)OC(N)=C(C#N)C21CCN(C(=O)OCc2ccccc2)CC1 | 0.517 µM [rising, full curve, poor fit] | 
12 | Cc1ccccc1NC(=O)NCCCCc1ccccc1 | 10 µM [falling, partial curve] | 
13 | O=C(NCC1CCCO1)c1coc2nc3ccccc3nc12 (stereo not given) | 25.1 µM [falling, single point] | 
14 | COc1ccc(C)cc1NC(=O)C(=O)c1cn(CC(=O)N2CCCC2)c2ccccc12 | 3.16 µM [falling, full curve] | 
15 | CCn1c(O)c(N=NC(=S)NCC2CCCO2)c2ccccc21 (stereo not given) | 17.8 µM [rising, single point] | 3.55 µM [falling, partial curve, poor fit]
16 | O=C(Nc1ccon1)c1cccc(Cl)c1 | 6.51 µM [falling, single point] | 
17 | COc1ccc(/C(C#N)=C/c2cccnc2)cc1 | 3.16 µM [rising, full curve, poor fit] | 
18 | COc1ccc(NC(=O)CN(C)C(=O)c2cccc3ccccc23)cc1 | 13 µM [rising, partial curve, poor fit] | 
19 | O=C(Nc1nc2ccc3ccccc3c2s1)c1ccc(N2CCCCC2)c([N+](=O)[O-])c1 | 8.2 µM [falling, partial curve] | 

A second format for part of the listing above:
Row	SMILES	AC50 [1]	AC50 [2]
1	O=C(CCC1CCCCC1)NCCN1C2=NC[C@@H](Cc3ccccc3)N2C[C@H]1Cc1ccc(O)cc1	35.5 µM [falling, single point]	
2	Cc1ccc(/C=N/Nc2nncn2N)cc1	35.5 µM [falling, single point]	
3	Cc1ccc(C(=O)N2CCCC(c3ccccc3)=N2)cc1	0.631 µM [falling, full curve, poor fit]	
4	O=[N+]([O-])C(=C1Nc2ccccc2N1)C(Cl)=C(Cl)Cl	3.55 µM [falling, partial curve, poor fit]	
5	CCCCNC(=S)NCc1ccc2c(c1)cc(C)n2C	29.1 µM [rising, single point]	

From PubChem BioAssay AID493014 (National Center for Advancing Translational Sciences (NCATS), 2011)
